Measurements reported in PubChem BioAssay AID504808 (Drosophila RNAi Screening Center, 2011).
The screen tested about 21,000 reagents; this is an unselected part of those that have a named target and a result. Of all reagents, 18 (0.084%) were called active. 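Raw counts without plate normalisation, one of two replicates; the ratio scores behind the calls were not deposited.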 A plus sign joins genes that one reagent is predicted to hit. Not stated in the record: the amount of reagent, the time to read-out.

Assay: 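Fly genes required to hold E2F transcription in check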 (primary screen)
System: Drosophila S2 cells
Reagents: long dsRNA against Drosophila genes
Detection: 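Firefly luciferase driven by E2F sites, normalised to Renilla luciferase on the same minimal promoter, measured by plate reader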
Direction: E2F firefly: higher = more E2F reporter activity; Renilla normaliser: higher = more normaliser reporter signal
Rule for the call: 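a knock-down counted as active when the firefly/Renilla E2F signal rose above 50%, a threshold chosen arbitrarily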

For Zwilch (GeneID 59247) [DRSC15376], the values are E2F firefly, rep 1 = 1.32e5; Renilla normaliser, rep 1 = 6592; inactive.
For rad50 (GeneID 37564) [DRSC04523], the entry reads E2F firefly, rep 1 = 76201; Renilla normaliser, rep 1 = 3253; inactive.
For Fbxo42 (GeneID 37532) [DRSC04529], the entry reads E2F firefly, rep 1 = 80328; Renilla normaliser, rep 1 = 3257; inactive.
Depletion of Cyp1 (GeneID 32595) [DRSC20234] resulted in: E2F firefly, rep 1 = 10515; Renilla normaliser, rep 1 = 812; inactive.
Silencing of Apl (GeneID 59216) [DRSC10350] came out at: E2F firefly, rep 1 = 1.66e5; Renilla normaliser, rep 1 = 8490; inactive.
After knock-down of robl37BC (GeneID 35166) [DRSC02472], the screen gave E2F firefly, rep 1 = 88426; Renilla normaliser, rep 1 = 3939; inactive.
Duba (GeneID 39302) [DRSC10582] gave E2F firefly, rep 1 = 73743; Renilla normaliser, rep 1 = 3070; inactive.

Laid out differently: 2 of the entries above.
{"Gene":"Apl (GeneID 59216)","DRSC id":"DRSC10350","E2F firefly, rep 1":1.66e5,"Renilla normaliser, rep 1":8490,"call":"inactive"}
{"Gene":"robl37BC (GeneID 35166)","DRSC id":"DRSC02472","E2F firefly, rep 1":88426,"Renilla normaliser, rep 1":3939,"call":"inactive"}

More results follow:
For CG9986 (GeneID 43386) [DRSC16586], the entry reads E2F firefly, rep 1 = 1701; Renilla normaliser, rep 1 = 1004; inactive.
After knock-down of phtm (GeneID 32857) [DRSC20237] the results were E2F firefly, rep 1 = 1.19e5; Renilla normaliser, rep 1 = 6811; inactive.
MED8 (GeneID 37305) [DRSC06426] gave E2F firefly, rep 1 = 1.44e5; Renilla normaliser, rep 1 = 5058; inactive.
For Cpr65Aw (GeneID 38706) [DRSC08794] the deposit lists E2F firefly, rep 1 = 1.25e5; Renilla normaliser, rep 1 = 3801; inactive.
For barc (GeneID 40369) [DRSC11792], the entry reads E2F firefly, rep 1 = 75066; Renilla normaliser, rep 1 = 3464; inactive.
With knock-down of GC2 (GeneID 41449) [DRSC14476], the record shows E2F firefly, rep 1 = 1.27e5; Renilla normaliser, rep 1 = 6481; inactive.
Depletion of CG9400 (GeneID 32385) [DRSC20182] gave: E2F firefly, rep 1 = 7904; Renilla normaliser, rep 1 = 752; inactive.
Crag (GeneID 31800) [DRSC18454] scored E2F firefly, rep 1 = 8023; Renilla normaliser, rep 1 = 720; inactive.
CG17024 (retired record) (GeneID 34664) [DRSC02562] gave E2F firefly, rep 1 = 95554; Renilla normaliser, rep 1 = 3865; inactive.
CG42816 + CG42815 [DRSC11230] gave E2F firefly, rep 1 = 1.68e5; Renilla normaliser, rep 1 = 8186; inactive.
Against Nep4 (GeneID 42449) [DRSC15539] the deposit lists E2F firefly, rep 1 = 62526; Renilla normaliser, rep 1 = 3235; inactive.
Silencing of CG15152 (GeneID 35082) [DRSC02453] came out at: E2F firefly, rep 1 = 1.01e5; Renilla normaliser, rep 1 = 4282; inactive.
